Laboratory results reported in patent US11730723B2, “Compounds and methods for treating viral infections” (priority 2020, dated 2023).
At least one compound was matched to its structure with a doubt left.

Tested on: SARS-CoV-2 (USA-WA1/2020)
Conditions: Compound 1 at 25 μM; HCQ at 5 μM; remdesivir 10 μM

CCC(CC)COC(=O)[C@H](C)N[P@](=O)(OC[C@H]1O[C@@](C#N)(c2ccc3c(N)ncnn23)[C@H](O)[C@@H]1O)Oc1ccccc1 [Remdesivir]
prevention of the SARS-CoV-2 induced CPE (in words): prevented most of the virus-induced CPE
